Where two headings read alike, the source gives them in different places. No constants are given. Whether binding was seen depends on the method and setting. In cells and extracts the contact can be indirect. Some results given as binding are weak or reduced against the parent protein; the word gives no strength.
T1: Klotho (human (endogenous in HK-2)) (UniProt Q9UEF7)
T1 sequence: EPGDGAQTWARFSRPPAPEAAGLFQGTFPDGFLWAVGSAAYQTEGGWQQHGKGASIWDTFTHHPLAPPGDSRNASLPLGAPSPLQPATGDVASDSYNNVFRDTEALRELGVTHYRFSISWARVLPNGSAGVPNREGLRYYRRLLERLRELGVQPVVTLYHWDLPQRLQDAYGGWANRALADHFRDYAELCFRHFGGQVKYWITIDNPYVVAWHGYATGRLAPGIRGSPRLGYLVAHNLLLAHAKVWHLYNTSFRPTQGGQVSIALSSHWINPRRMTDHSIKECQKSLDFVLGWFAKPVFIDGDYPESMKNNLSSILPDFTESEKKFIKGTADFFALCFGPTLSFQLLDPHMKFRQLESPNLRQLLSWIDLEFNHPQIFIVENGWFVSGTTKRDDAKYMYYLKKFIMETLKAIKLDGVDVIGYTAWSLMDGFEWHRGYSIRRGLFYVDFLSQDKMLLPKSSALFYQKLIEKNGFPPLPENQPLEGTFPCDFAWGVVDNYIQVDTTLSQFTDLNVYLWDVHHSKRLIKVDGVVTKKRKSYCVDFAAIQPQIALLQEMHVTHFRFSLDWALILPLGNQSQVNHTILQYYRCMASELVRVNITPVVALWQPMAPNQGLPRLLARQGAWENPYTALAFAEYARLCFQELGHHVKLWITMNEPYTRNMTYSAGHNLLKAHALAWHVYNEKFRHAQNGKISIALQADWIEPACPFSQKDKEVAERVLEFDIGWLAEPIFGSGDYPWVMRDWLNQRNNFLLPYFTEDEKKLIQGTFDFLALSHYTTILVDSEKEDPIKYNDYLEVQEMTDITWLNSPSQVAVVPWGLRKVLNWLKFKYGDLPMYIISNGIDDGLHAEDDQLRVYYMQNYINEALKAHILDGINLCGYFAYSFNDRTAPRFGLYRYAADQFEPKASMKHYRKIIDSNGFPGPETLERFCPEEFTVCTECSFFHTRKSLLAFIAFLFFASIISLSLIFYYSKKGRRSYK

Chains of the proteins cited; added tags and fusions are not shown.
UniProt P04406: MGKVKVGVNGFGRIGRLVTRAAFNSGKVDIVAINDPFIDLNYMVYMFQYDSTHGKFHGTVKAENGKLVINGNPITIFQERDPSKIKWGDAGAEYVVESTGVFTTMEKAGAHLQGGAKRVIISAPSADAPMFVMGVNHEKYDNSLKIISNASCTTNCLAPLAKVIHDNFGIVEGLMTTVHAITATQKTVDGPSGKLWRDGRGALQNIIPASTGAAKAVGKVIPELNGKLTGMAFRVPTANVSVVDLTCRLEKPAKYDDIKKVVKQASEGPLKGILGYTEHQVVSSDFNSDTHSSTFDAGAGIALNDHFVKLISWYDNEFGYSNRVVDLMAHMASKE

T2: ABI3BP (human (endogenous in HK-2)) (UniProt Q7Z7G0)
T2 sequence: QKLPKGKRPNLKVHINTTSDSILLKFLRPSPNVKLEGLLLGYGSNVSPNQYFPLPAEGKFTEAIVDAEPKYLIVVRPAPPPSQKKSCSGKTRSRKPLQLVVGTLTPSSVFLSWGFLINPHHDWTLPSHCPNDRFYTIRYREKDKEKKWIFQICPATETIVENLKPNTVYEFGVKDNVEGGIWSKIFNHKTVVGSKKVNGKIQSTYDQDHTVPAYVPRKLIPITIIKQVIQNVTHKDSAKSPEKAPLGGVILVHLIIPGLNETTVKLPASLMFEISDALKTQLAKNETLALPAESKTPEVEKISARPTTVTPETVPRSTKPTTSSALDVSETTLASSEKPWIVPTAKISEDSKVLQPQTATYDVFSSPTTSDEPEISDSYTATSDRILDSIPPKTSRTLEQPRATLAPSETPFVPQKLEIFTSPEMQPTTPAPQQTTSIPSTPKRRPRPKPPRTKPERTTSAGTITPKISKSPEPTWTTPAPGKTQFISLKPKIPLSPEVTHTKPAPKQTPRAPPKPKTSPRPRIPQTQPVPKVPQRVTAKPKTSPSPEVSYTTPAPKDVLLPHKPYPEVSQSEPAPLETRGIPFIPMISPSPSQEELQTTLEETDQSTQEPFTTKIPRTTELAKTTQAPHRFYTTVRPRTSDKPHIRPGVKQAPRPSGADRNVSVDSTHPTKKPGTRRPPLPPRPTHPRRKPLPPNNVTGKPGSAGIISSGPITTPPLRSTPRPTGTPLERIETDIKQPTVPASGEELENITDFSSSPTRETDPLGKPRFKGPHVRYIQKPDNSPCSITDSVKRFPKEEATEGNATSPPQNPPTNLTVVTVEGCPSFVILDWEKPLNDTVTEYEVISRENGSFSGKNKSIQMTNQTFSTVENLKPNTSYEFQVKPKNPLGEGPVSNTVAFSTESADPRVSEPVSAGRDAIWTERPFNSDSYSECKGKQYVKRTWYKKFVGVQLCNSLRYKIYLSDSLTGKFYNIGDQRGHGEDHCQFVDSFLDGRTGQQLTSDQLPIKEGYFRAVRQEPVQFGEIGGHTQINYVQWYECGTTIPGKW


Assays:
Assay in all cases: co-IP; HK-2 cells lysed in RIPA buffer; supernatant with Klotho or IgG antibody at 4 °C overnight, protein A/G-agarose beads 4-6 h at 4 °C; western blot
[1] = biological target: T1, Klotho (human (endogenous in HK-2))
[2] = biological target: T2, ABI3BP (human (endogenous in HK-2))
[3] = biological target: T1, Klotho (human (endogenous in HK-2)); remark: listed apart in the source

Row | Molecule | binding [1] | binding [2] | binding [3]
1 | GAPDH (from UniProt P04406 1-335) | no binding | no binding | 
2 | ABI3BP (protein, UniProt Q7Z7G0 22-1068) QKLPKGKRPNLKVHINTTSDSILLKFLRPSPNVKLEGLLLGYGSNVSPNQYFPLPAEGKFTEAIVDAEPKYLIVVRPAPPPSQKKSCSGKTRSRKPLQLVVGTLTPSSVFLSWGFLINPHHDWTLPSHCPNDRFYTIRYREKDKEKKWIFQICPATETIVENLKPNTVYEFGVKDNVEGGIWSKIFNHKTVVGSKKVNGKIQSTYDQDHTVPAYVPRKLIPITIIKQVIQNVTHKDSAKSPEKAPLGGVILVHLIIPGLNETTVKLPASLMFEISDALKTQLAKNETLALPAESKTPEVEKISARPTTVTPETVPRSTKPTTSSALDVSETTLASSEKPWIVPTAKISEDSKVLQPQTATYDVFSSPTTSDEPEISDSYTATSDRILDSIPPKTSRTLEQPRATLAPSETPFVPQKLEIFTSPEMQPTTPAPQQTTSIPSTPKRRPRPKPPRTKPERTTSAGTITPKISKSPEPTWTTPAPGKTQFISLKPKIPLSPEVTHTKPAPKQTPRAPPKPKTSPRPRIPQTQPVPKVPQRVTAKPKTSPSPEVSYTTPAPKDVLLPHKPYPEVSQSEPAPLETRGIPFIPMISPSPSQEELQTTLEETDQSTQEPFTTKIPRTTELAKTTQAPHRFYTTVRPRTSDKPHIRPGVKQAPRPSGADRNVSVDSTHPTKKPGTRRPPLPPRPTHPRRKPLPPNNVTGKPGSAGIISSGPITTPPLRSTPRPTGTPLERIETDIKQPTVPASGEELENITDFSSSPTRETDPLGKPRFKGPHVRYIQKPDNSPCSITDSVKRFPKEEATEGNATSPPQNPPTNLTVVTVEGCPSFVILDWEKPLNDTVTEYEVISRENGSFSGKNKSIQMTNQTFSTVENLKPNTSYEFQVKPKNPLGEGPVSNTVAFSTESADPRVSEPVSAGRDAIWTERPFNSDSYSECKGKQYVKRTWYKKFVGVQLCNSLRYKIYLSDSLTGKFYNIGDQRGHGEDHCQFVDSFLDGRTGQQLTSDQLPIKEGYFRAVRQEPVQFGEIGGHTQINYVQWYECGTTIPGKW |  |  | binds
